The values below come from doi:10.1101/824060 (bioRxiv, 2019).

Results are given in words; binding and its absence hold for the method and conditions named. Some entries that bind do so weakly or less than the wild type.

This experiment addresses T1, Gid1 (S. cerevisiae) (UniProt P53076).
T1 sequence: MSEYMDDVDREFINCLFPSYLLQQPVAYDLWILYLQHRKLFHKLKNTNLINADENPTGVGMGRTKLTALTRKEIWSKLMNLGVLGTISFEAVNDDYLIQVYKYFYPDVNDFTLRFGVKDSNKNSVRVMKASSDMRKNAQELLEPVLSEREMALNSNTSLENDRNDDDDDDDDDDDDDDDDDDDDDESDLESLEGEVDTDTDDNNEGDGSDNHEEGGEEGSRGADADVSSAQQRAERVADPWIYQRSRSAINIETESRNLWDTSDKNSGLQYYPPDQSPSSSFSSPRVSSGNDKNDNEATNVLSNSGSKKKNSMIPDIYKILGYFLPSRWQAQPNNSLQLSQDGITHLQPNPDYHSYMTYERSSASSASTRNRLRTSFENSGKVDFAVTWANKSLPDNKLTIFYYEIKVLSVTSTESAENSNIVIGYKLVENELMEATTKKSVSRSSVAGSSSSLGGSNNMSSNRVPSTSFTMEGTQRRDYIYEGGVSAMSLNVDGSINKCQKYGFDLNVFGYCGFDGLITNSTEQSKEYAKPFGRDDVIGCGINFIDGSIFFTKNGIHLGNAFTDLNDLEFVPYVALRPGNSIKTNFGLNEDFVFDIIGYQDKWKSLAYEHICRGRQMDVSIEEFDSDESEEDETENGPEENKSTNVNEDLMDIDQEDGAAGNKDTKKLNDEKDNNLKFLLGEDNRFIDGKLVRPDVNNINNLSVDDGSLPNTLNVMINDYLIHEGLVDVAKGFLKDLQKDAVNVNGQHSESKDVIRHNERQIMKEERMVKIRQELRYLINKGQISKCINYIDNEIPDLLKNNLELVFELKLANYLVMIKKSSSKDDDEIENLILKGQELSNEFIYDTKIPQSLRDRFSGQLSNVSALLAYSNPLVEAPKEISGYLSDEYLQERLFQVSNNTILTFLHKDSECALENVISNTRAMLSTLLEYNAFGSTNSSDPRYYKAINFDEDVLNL
The experiment is described as follows: cryo-EM structure.

B1: Gid4 (protein, UniProt P38263 1-362)
chain: MINNPKVDSVAEKPKAVTSKQSEQAASPEPTPAPPVSRNQYPITFNLTSTAPFHLHDRHRYLQEQDLYKCASRDSLSSLQQLAHTPNGSTRKKYIVEDQSPYSSENPVIVTSSYNHTVCTNYLRPRMQFTGYQISGYKRYQVTVNLKTVDLPKKDCTSLSPHLSGFLSIRGLTNQHPEISTYFEAYAVNHKELGFLSSSWKDEPVLNEFKATDQTDLEHWINFPSFRQLFLMSQKNGLNSTDDNGTTNAAKKLPPQQLPTTPSADAGNISRIFSQEKQFDNYLNERFIFMKWKEKFLVPDALLMEGVDGASYDGFYYIVHDQVTGNIQGFYYHQDAEKFQQLELVPSLKNKVESSDCSFEFA
Regarding B1, the binding result was “binds”.
